According to article PMC10240827:
Results are given in words; binding and its absence hold for the method and conditions named. In cells and extracts the contact can be indirect. Some binding calls cover weakened binding; strength is not graded here.

Chains of the proteins cited; added tags and fusions are not shown. Residues count along the entry.
UniProt Q9QUK6, residues 26-835: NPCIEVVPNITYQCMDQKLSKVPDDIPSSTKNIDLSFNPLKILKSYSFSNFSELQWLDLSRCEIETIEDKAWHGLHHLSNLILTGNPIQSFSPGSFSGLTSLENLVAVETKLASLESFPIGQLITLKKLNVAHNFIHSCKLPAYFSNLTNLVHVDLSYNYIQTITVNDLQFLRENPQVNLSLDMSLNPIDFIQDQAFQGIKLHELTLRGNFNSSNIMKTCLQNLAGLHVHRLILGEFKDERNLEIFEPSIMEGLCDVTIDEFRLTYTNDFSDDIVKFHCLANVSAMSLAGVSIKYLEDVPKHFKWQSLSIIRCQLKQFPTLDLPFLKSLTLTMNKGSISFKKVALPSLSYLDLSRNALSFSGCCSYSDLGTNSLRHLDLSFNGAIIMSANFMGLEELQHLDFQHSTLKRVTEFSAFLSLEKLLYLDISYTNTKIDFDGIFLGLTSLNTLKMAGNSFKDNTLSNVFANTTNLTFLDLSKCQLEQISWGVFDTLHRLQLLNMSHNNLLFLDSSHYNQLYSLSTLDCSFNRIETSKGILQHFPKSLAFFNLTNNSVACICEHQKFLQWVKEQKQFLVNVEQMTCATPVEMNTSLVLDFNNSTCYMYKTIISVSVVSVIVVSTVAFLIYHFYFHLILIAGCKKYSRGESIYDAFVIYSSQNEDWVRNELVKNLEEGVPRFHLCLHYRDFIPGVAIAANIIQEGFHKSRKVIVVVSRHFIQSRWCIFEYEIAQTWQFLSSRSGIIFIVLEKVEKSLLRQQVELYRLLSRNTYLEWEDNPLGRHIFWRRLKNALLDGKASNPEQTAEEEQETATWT
UniProt P63158: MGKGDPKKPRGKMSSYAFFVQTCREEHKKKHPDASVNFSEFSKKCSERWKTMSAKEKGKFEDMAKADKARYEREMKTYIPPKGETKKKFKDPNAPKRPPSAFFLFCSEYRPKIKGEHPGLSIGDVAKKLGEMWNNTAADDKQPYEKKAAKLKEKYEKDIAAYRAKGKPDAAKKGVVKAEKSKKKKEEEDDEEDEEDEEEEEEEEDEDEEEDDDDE

Molecular target: Toll-like receptor 4 (TLR4) (mouse (endogenous in BUMPT)) (UniProt Q9QUK6)
Experiment: co-IP; lysate of RLDC-treated BUMPT cells (150 mM NaCl, 5% glycerol, 50 mM Tris HCl pH 8.0, 1 mM MgCl2, 1.0% NP40); precipitated with anti-HMGB1, anti-TLR4 or control IgG overnight at 4 °C, Protein A/G PLUS-Agarose; immunoblot

binding: binds
Substance: high-mobility group box 1 (HMGB1) (from UniProt P63158 1-215)
